Earlier results, collected in patent US20170102375A1, “METHODS FOR DETERMINING THE EFFECTS OF COMPOUNDS ON JAK/STAT ACTIVITY” (Nodality, Inc., priority 2009, published 2017).
At least one structure is not confirmed: it was looked up by name or label, or the drawing left a doubt.

Test system: CML patients
Details: advanced stage (blast crisis) CML patients; cited from earlier work

Question: With `Cc1nc(Nc2ncc(C(=O)Nc3c(C)cccc3Cl)s2)cc(N2CCN(CCO)CC2)n1` [Dasatinib] as the molecule, how does the “major hematologic response, patients” value read?
Answer: The value was 34%.
